Data reported in PubChem BioAssay AID1259415 (National Center for Advancing Translational Sciences (NCATS), 2018).
In all, about 410,000 compounds went through this assay and about 18,000 (4.4%) were called active. The shares of active, inactive and inconclusive entries below differ from those in the screen. No stated cut-off is given here; in the data, active means activity change below about -60%; inconclusive means no clear call, values can overlap the other calls; inactive means above about -39%.

Test: qHTS Assay for inhibitors of the human cytomegalovirus (HCMV)
Conditions: HFF cells, HCMV-luciferase reporter, 72 h; at 57.5 µM; stronger effect = lower value
Outline: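 Inhibition of viral replication was scored as loss of reporter luminescence in HFFs infected with HCMV-luciferase (MOI 1 PFU/cell) for 72 h; compounds tested at 2 doses, normalized to buffer and Salinomycin controls.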
On the % scale 0 is the no-effect control and ±100 the full control effect.

| SMILES | activity change, negative = inhibition |
| --- | --- |
| COc1ccc2c(c1)c(C(C)=O)c(C)n2-c1ccc(C(C)=O)cc1 | active: -73.6% |
| CC(/C=C/c1ccccc1)=N/NC(=O)Cn1nnc(N)n1 | inconclusive: -45.4% |
| COc1ccc(/C=N/NC(=O)c2ccc(COc3ccccc3Cl)o2)c(OC)c1C | inconclusive: -43.1% |
| CCc1ccc(CNC(=O)c2cccc(-n3cnc4cccnc43)c2C)cc1 | inconclusive: 0% |
| CN(Cc1cc(Cl)cc(Cl)c1)CC(C(=O)c1ccccc1)c1ccccc1 (centres undefined) | inconclusive: -59.6% |
| O=C(NC1CC1)C1=NOC(CNc2ncc(C(F)(F)F)cc2Cl)C1 (centres undefined) | inactive: -5.31% |
| CC(C)c1ccc(/C=C/C(=O)NC2=NCCS2)cc1 | inconclusive: -51.2% |
| CN(CC(=O)Nc1ccccc1[N+](=O)[O-])Cc1ccc(Br)cc1 | inconclusive: -43.9% |
| COc1ccccc1Nc1nn2c(=O)c3ccc(C(=O)NCCCOC(C)C)cc3nc2s1 | inconclusive: -56.2% |
| CCn1c2ccccc2c2nnc(SCCN3CCCCC3)nc21 | inconclusive: -40.2% |
| S=c1[nH]nc(CSCc2ccccc2Cl)n1C1CCCCC1 | inconclusive: -42.9% |
| O=C(CCl)Nc1nc(-c2ccco2)c(-c2ccco2)s1 | active: -68.6% |
| COCCCNC(=O)COc1cc2c(c3oc(=O)c(C)c(C)c13)CCC(C)(C)O2 | inconclusive: -57.8% |
| O=C(OCCN1CCN(C2=NS(=O)(=O)c3ccccc32)CC1)c1cccc(Br)c1 | inactive: -16% |
| C[n+]1cccc(/C=N/NC(=O)CC23CC4CC(CC(C4)C2)C3)c1 | inconclusive: -42.5% |
| O=C(Cc1ccccc1Cl)Nc1cccc(S(=O)(=O)N2CCCCCC2)c1 | inactive: -18.5% |
| O=C(CCN1CCOCC1)NC1CCCN(Cc2ccccc2F)C1 (centres undefined) | inconclusive: -40% |
| O=C(O)c1ccc(N/N=C/c2cccc3cccnc23)cc1 | inactive: 54.8% |
| COc1ccc(NC(=O)CN(C)C(=O)c2cccc(Oc3ccccc3)c2)cc1 | inconclusive: -41.1% |
| Cc1ccc(CN(C(=O)COc2cccc([N+](=O)[O-])c2)c2ccccn2)o1 | inconclusive: -44.9% |
| COc1ccc(/C=C/c2nnc(NC(=O)COc3cccc(C)c3)s2)cc1 | inactive: -19.5% |
| COc1ccccc1/C=C1\SC(=S)N(N2C(=O)CCCC2=O)C1=O | inconclusive: -51% |

| SMILES | activity change, negative = inhibition |
| --- | --- |
| O=C(CN1CCCCC1)Nc1nc(-c2ccc(Cl)cc2)cs1 | inconclusive: -42.2% |
| Cc1ccc(C(=O)OCC(=O)Nc2c(C)nn(-c3ccccc3)c2C)c(O)c1 | inconclusive: -52.8% |
| NC(=O)CC(NC(=O)c1ccccc1)c1ccc(N2CCC(Br)CC2)c([N+](=O)[O-])c1 (centres undefined) | inconclusive: -49.7% |
| COc1ccccc1/C=C/C=N\N1CCN(Cc2ccccc2Cl)CC1 | inconclusive: -40% |
| COc1ccc(NC(=O)c2cc(-c3ccc(C)cc3O)n[nH]2)c(OC)c1 | inconclusive: -46.8% |
| Cc1ccc(NC(=O)c2ccc(OCC3CCCO3)cc2)cc1Cl (centres undefined) | inconclusive: -42.9% |
| c1nc2sc3c(c2c2nnnn12)CCCC3 | inconclusive: -55.1% |
| Cc1ccc([N+](=O)[O-])cc1NC(=O)Nc1cccc(F)c1 | active: -96.8% |
| O=C(NCCc1ccc(Cl)cc1)c1ccc(CS(=O)Cc2cccc(Cl)c2)o1 (centres undefined) | active: -64.1% |
| COc1ccc(-c2csc(NC(=S)NC(=O)c3ccccc3)n2)cc1Br | inconclusive: -42.6% |
| Cc1ccc(OCCn2cc(C(=S)N3CCCC3)c3ccccc32)cc1C | active: -97.9% |
| COc1ccc(OCC(N)=O)cc1 | inconclusive: -46.4% |
| CC(=O)NC(Cc1ccc(F)c(F)c1)C(=O)NC1CCN(C(=O)c2ccc(Cl)cc2)CC1 (centres undefined) | inconclusive: -58.6% |
| CC1=C(C#N)CCC(=O)N1Cc1c(F)cccc1Cl | inconclusive: -58.1% |
| CCOc1ccc(CCNC(=O)c2nn(C)c3c2CS(=O)(=O)c2ccccc2-3)cc1 | inconclusive: -40.5% |
| COc1cccc(NC(=O)C2(C)CCCN2C(=O)C(C)C)c1OC (centres undefined) | inactive: 32.8% |
| Cc1nc2nc(C)c(C)nc2nc1C | inactive: -17.5% |
| O=C(Nc1cc([N+](=O)[O-])ccc1Cl)C(Sc1ccccc1)c1ccccc1 (centres undefined) | inconclusive: -46.7% |
| O=C1/C(=C\c2ccco2)CCC/C1=C\c1ccco1 | inconclusive: -48.5% |
| CCc1nccn1S(=O)(=O)c1cc(OC)ccc1OC | inactive: 55.5% |
| O=C1/C(=C/c2ccc3c(c2)OCO3)CCC/C1=C\c1ccc2c(c1)OCO2 | inconclusive: -41.6% |
| Cc1nn(C)c(C)c1S(=O)(=O)N1CCCC(C(=O)N2CCN(c3ccc(Cl)cc3)CC2)C1 (centres undefined) | inconclusive: -55% |

Some values from above.
Value for `COc1ccc2c(c1)c(C(C)=O)c(C)n2-c1ccc(C(C)=O)cc1` under activity change, negative = inhibition: active: -73.6%
Value for `COc1ccc(NC(=O)CN(C)C(=O)c2cccc(Oc3ccccc3)c2)cc1` under activity change, negative = inhibition: inconclusive: -41.1%
